# Results reported in PubChem BioAssay AID445 (National Center for Advancing Translational Sciences (NCATS), 2006).
# The list shows a part of the results. Further columns of the screen follow, without active or inactive calls. Most of these compounds were active or inconclusive in the main read-out, so they are no random draw. The note in brackets gives the kind of curve behind each potency; many fits are weak.
# Experiment: IkB Signaling
# Conditions: ABC-DLBCL IkBa-CBG/CBR dual luciferase ratio (green luciferase fused to IkBa over red control in OCI-Ly3 lymphoma cells), 4 h
# Outline: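 In this assay, an IκBα–CBG68 fusion accumulates when IKK-driven degradation is blocked; native CBR normalizes for cell number. OCI-Ly3 cells were treated 4 h with compound and doxycycline, then green and red light read after Chroma-Glo addition.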
# [1] = measured here: IkB-luc green channel
# [2] = measured here: control luc red channel
# [3] = measured here: control luc red channel unless noted
smiles,measurement,setting,value
COCCn1c(=O)cnc2cnc(Nc3ccccc3)nc21,AC50,[1],"3.98 µM [falling, partial curve]"
same,AC50,[2],"3.98 µM [falling, partial curve]"
Cc1ccc(OCC(=O)Nc2cccc(C(=O)OCc3cc(=O)n4c(C)csc4n3)c2)cc1,AC50,[3],"2.51 µM [falling, full curve]"
CC(=O)c1ccc(N2CCN(c3ncnc4c3cnn4-c3cc(Cl)ccc3C)CC2)cc1,AC50,[3],"6.31 µM [falling, partial curve]"
O=C(c1ccc2c(c1)N(Cc1ccc(Cl)cc1)C(=O)c1ccccc1S2(=O)=O)N1CCN(c2ccccn2)CC1,AC50,[3],"7.94 µM [falling, full curve, poor fit]"
Cn1cccc1C(=O)Nc1nc(-c2ccccn2)cs1,AC50,[3],"3.16 µM [falling, full curve]"
O=C(Nc1cc(Cl)cc(Cl)c1)c1ccc(F)c(S(=O)(=O)N2CCN(c3ccccc3F)CC2)c1,AC50,[3],"15.8 µM [falling, partial curve]"
CCOc1ccc(NC(=O)N2CCC(N3CCCCC3)CC2)cc1,AC50,[3],"0.316 µM [falling, full curve, poor fit]"
Nc1ccccc1NC(=O)c1ccccc1,AC50,[1],"25.1 µM [rising, partial curve]"
same,AC50,[2],"20 µM [rising, partial curve]"
Cc1cccc(CSc2ncccc2C(=O)O)c1,AC50,[3],"2.51 µM [rising, full curve]"
Cc1ccc(NC(=O)C2CCCN(S(=O)(=O)c3c(C)noc3/C=C/N(C)C)C2)cc1F (stereo not given),AC50,[3],"15.8 µM [falling, partial curve]"
Cc1cc(C)c(S(=O)(=O)Nc2ccccc2C(F)(F)F)c(C)c1,AC50,[3],"39.8 µM [falling, partial curve]"
COc1ccc(-n2nc3c(N4CCCC(C(=O)NCCc5ccccc5C)C4)nnc(C)c3c2C)cc1 (stereo not given),AC50,[3],"10 µM [falling, partial curve]"
COc1ccc(S(=O)(=O)N(CC(=O)Nc2ccc3c(c2)OCO3)c2ccccc2OC)cc1,AC50,[3],"3.98 µM [falling, full curve]"
O=S(=O)(c1ccc(-c2cnc(C3CC3)o2)cc1)N1CCN(c2ccccc2)CC1,AC50,[3],"3.16 µM [falling, partial curve, poor fit]"
CC1=C(C(=O)OC2CCCC2)C(c2ccccc2C(F)(F)F)CC(=O)N1 (stereo not given),AC50,[3],"39.8 µM [falling, partial curve]"
COc1cccc(NC(=O)Cn2c(=O)n(-c3ccccc3)c(=O)c3c2c2cc(OC)ccc2n3C)c1,AC50,[3],"1.26 µM [falling, full curve]"
COc1ccc(C2c3c(n(C)c4ccccc34)C(=O)N2CC(=O)Nc2ccc(F)cc2)cc1 (stereo not given),AC50,[3],"10 µM [falling, partial curve]"
CCOc1ccc(-c2nc(SCC(=O)Nc3cc(F)ccc3F)n3[nH]c(=O)cc3n2)cc1,AC50,[3],"2.51 µM [rising, partial curve]"
COc1ccc(-c2ccc(=O)n(CC(=O)Nc3ccc(OC)c(OC)c3)n2)cc1,AC50,[3],"7.94 µM [falling, full curve]"
CCC(C)NC(=O)c1cnc2n(c1=O)CCS2 (stereo not given),AC50,[3],"12.6 µM [falling, partial curve]"
O=C1N(Cc2ccccc2)c2ccccc2C1(O)c1c[nH]c2ccccc12 (stereo not given),AC50,[3],"15.8 µM [falling, partial curve]"
CCc1cccc(NC(=O)c2c(C)oc3nc(C)nc(N4CCCC4)c23)c1,AC50,[3],"39.8 µM [falling, single point]"
COC(=O)C1CCN(c2csc3ccc(Cl)cc3c2=O)CC1,AC50,[3],"7.94 µM [falling, partial curve]"
O=C(NCCCO)c1nn(-c2ccc(Cl)cc2)nc1CO,AC50,[3],"0.00794 µM [rising, full curve, poor fit]"
CCc1ccc(OCc2cc(=O)n3cc(C)sc3n2)cc1,AC50,[3],"0.0794 µM [rising, full curve]"
CCOc1ccc2oc(=O)cc(CN3CCN(c4ccccc4OC)CC3)c2c1,AC50,[3],"31.6 µM [falling, partial curve]"
COc1cccc(NC(=O)Cn2c(=O)n(CCc3ccc(OC)c(OC)c3)c(=O)c3ccccc32)c1,AC50,[3],"0.2 µM [falling, full curve, poor fit]"
Cc1ccc(-c2cc(C(F)F)nc(NCc3cccnc3)n2)cc1,AC50,[3],"20 µM [falling, partial curve]"
COc1cc(COc2cc(N)c(Cl)cc2C(=O)CCC2CCN(CCNS(C)(=O)=O)CC2)cc(OC)c1,AC50,[3],"39.8 µM [falling, partial curve]"
Cc1ccc(-c2nnn(CC(=O)N(CC(=O)NCc3ccccc3)c3cccc(C)c3C)n2)o1,AC50,[3],"31.6 µM [falling, partial curve]"
COc1ccc(C(=O)N(Cc2cc(OC)c(OC)c(OC)c2)C2CCS(=O)(=O)C2)cc1Cl (stereo not given),AC50,[3],"3.98 µM [rising, partial curve]"
CCCCOC(=O)c1ccc(Nc2ncnc3c2cnn3-c2cccc(C)c2)cc1,AC50,[3],"1 µM [falling, partial curve]"
COc1ccc(-c2nc(S(=O)(=O)c3ccc(C)cc3)c(N3CCCCC3)o2)cc1,AC50,[3],"25.1 µM [falling, partial curve, poor fit]"
Cc1ccc(CNC(=O)CN2C(=O)CC(c3ccc(C)c(C)c3)=Nc3ccccc32)cc1,AC50,[3],"31.6 µM [falling, partial curve]"
CCCn1c(CN(C)Cc2ccccc2)nc2c1c(=O)n(C)c(=O)n2C,AC50,[3],"15.8 µM [falling, partial curve]"
Cc1cccc(CN2CCC(CNc3ncnc4onc(-c5ccc(Cl)cc5)c34)CC2)c1,AC50,[3],"20 µM [falling, single point]"
Clc1cccc(-n2cc(-c3ccccc3)c3c(NC4CCCC4)ncnc32)c1,AC50,[3],"12.6 µM [falling, partial curve]"
COc1ccccc1NC(=O)CSc1nc2c(oc3ccccc32)c(=O)n1Cc1ccco1,AC50,[3],"10 µM [falling, partial curve]"
O=C(NCc1cccc(Cl)c1)NCc1noc2ccccc12,AC50,[3],"0.794 µM [rising, full curve]"
COc1cccc(N2CCN(c3ncnc4c3c(-c3ccccc3)cn4-c3ccc(F)cc3)CC2)c1,AC50,[3],"25.1 µM [falling, partial curve]"
CCCCN(CC)C(=O)CCCn1c(=O)c2cccn2c2ccccc21,AC50,[3],"25.1 µM [falling, single point]"
CCOC(=O)c1cnc(N2CCN(c3ccc(OC)cc3)CC2)c2ccccc12,AC50,[3],"31.6 µM [falling, single point]"
O=C(NCC(c1cccnc1)N1CCN(c2ccc(F)cc2)CC1)c1cccc(Cl)c1 (stereo not given),AC50,[3],"12.6 µM [falling, partial curve]"
CCN1CCN(c2ncnc3c2cnn3-c2cc(Cl)ccc2C)CC1,AC50,[3],"25.1 µM [falling, partial curve]"
CCOC(=O)c1c(S(=O)(=O)NCC(=O)N(C)Cc2ccccc2)c(C)n(C)c1C,AC50,[3],"25.1 µM [rising, partial curve, poor fit]"
CC(C)c1ccc(-c2noc(C3CCCN(C(=O)c4ccc(F)cc4F)C3)n2)cc1 (stereo not given),AC50,[3],"25.1 µM [falling, single point]"
O=C(Cn1nc(-c2ccc(Cl)cc2)ccc1=O)NCCc1ccccc1,AC50,[3],"25.1 µM [falling, partial curve]"
CCOC(=O)c1c(-c2ccccc2)nnn1-c1nc(OCC)nc(N2CCCCC2)n1,AC50,[3],"12.6 µM [falling, partial curve]"
CCCc1[nH]nc2c1C(c1ccc(Br)s1)C(C#N)=C(N)O2 (stereo not given),AC50,[3],"15.8 µM [falling, partial curve]"
Cc1ccc(-c2cc(C(=O)OCC(=O)Nc3cc(C)on3)c3ccccc3n2)c(C)c1,AC50,[3],"25.1 µM [falling, partial curve, poor fit]"
NC(=O)C1CCN(c2nc(C3CC3)nc3c2nnn3Cc2ccccc2)CC1,AC50,[3],"1.58 µM [rising, partial curve]"
O=C(COc1ccccc1)OCc1cc(=O)n2nc(-c3cccs3)sc2n1,AC50,[3],"0.398 µM [falling, full curve, poor fit]"
Cc1ccccc1NC(=O)c1ccc(N(Cc2ccccc2)S(C)(=O)=O)cc1,AC50,[3],"15.8 µM [falling, partial curve]"
CC(C)(C)OC(=O)N1CCC(c2c(C(=O)Nc3ccc4c(c3)OCO4)cnn2-c2ccccc2)CC1,AC50,[3],"31.6 µM [falling, single point]"
O=C(NCc1ccc2c(c1)CCN2C(=O)c1ccncc1)c1ccccc1F,AC50,[3],"3.16 µM [rising, partial curve]"
COC(=O)c1ccccc1NC(=O)CCS(=O)(=O)c1nc(-c2ccc3c(c2)OCO3)cc(C(F)(F)F)n1,AC50,[1],"5.01 µM [rising, single point]"
same,AC50,[2],"5.01 µM [falling, partial curve]"
CCOCCCn1c(=N)c(S(=O)(=O)c2ccc(Cl)cc2)cc2c(=O)n3cccc(C)c3nc21,AC50,[3],"39.8 µM [falling, single point]"
COc1ccccc1CNc1ncnc2c1nnn2C,AC50,[3],"3.16 µM [falling, single point]"
COC(=O)c1c(-c2cccs2)csc1NC(=O)c1ccc(C(C)C)cc1,AC50,[3],"39.8 µM [falling, single point]"
Cc1ccc(NC(=O)CCS(=O)(=O)c2ccc3c(c2)oc(=O)n3C)c(Br)c1,AC50,[3],"39.8 µM [falling, single point]"
Cc1ccc2nc(COc3cccc(NC(=O)COc4ccc(F)cc4)c3)cc(=O)n2c1,AC50,[3],"0.126 µM [falling, full curve]"
COc1ccc(NC(=O)c2cc3c(C)nn(-c4ccccc4)c3s2)c(OC)c1,AC50,[3],"12.6 µM [falling, partial curve]"

# Laid out differently: entries from further up
smiles	measurement	setting	value
O=C(c1ccc2c(c1)N(Cc1ccc(Cl)cc1)C(=O)c1ccccc1S2(=O)=O)N1CCN(c2ccccn2)CC1	AC50	[3]	7.94 µM [falling, full curve, poor fit]
Cn1cccc1C(=O)Nc1nc(-c2ccccn2)cs1	AC50	[3]	3.16 µM [falling, full curve]
O=C(Nc1cc(Cl)cc(Cl)c1)c1ccc(F)c(S(=O)(=O)N2CCN(c3ccccc3F)CC2)c1	AC50	[3]	15.8 µM [falling, partial curve]
CCOc1ccc(NC(=O)N2CCC(N3CCCCC3)CC2)cc1	AC50	[3]	0.316 µM [falling, full curve, poor fit]
Nc1ccccc1NC(=O)c1ccccc1	AC50	[1]	25.1 µM [rising, partial curve]
same	AC50	[2]	20 µM [rising, partial curve]
Cc1cccc(CSc2ncccc2C(=O)O)c1	AC50	[3]	2.51 µM [rising, full curve]
Cc1ccc(NC(=O)C2CCCN(S(=O)(=O)c3c(C)noc3/C=C/N(C)C)C2)cc1F (stereo not given)	AC50	[3]	15.8 µM [falling, partial curve]
Cc1cc(C)c(S(=O)(=O)Nc2ccccc2C(F)(F)F)c(C)c1	AC50	[3]	39.8 µM [falling, partial curve]
COc1ccc(-n2nc3c(N4CCCC(C(=O)NCCc5ccccc5C)C4)nnc(C)c3c2C)cc1 (stereo not given)	AC50	[3]	10 µM [falling, partial curve]
COc1ccc(S(=O)(=O)N(CC(=O)Nc2ccc3c(c2)OCO3)c2ccccc2OC)cc1	AC50	[3]	3.98 µM [falling, full curve]
O=S(=O)(c1ccc(-c2cnc(C3CC3)o2)cc1)N1CCN(c2ccccc2)CC1	AC50	[3]	3.16 µM [falling, partial curve, poor fit]
CC1=C(C(=O)OC2CCCC2)C(c2ccccc2C(F)(F)F)CC(=O)N1 (stereo not given)	AC50	[3]	39.8 µM [falling, partial curve]
